Results are given in words; binding and its absence hold for the method and conditions named. In cells and extracts the contact can be indirect. Here binding means that the protein was enriched with, or labelled near, the bait; the list need not be complete. Where a sequence is shown, tags or fusion partners need not be part of it.
Molecular target: T1, His-Slc17a5 (sialin), stably overexpressed in Raw264.7 macrophages (mouse) (UniProt Q8BN82)
T1 sequence: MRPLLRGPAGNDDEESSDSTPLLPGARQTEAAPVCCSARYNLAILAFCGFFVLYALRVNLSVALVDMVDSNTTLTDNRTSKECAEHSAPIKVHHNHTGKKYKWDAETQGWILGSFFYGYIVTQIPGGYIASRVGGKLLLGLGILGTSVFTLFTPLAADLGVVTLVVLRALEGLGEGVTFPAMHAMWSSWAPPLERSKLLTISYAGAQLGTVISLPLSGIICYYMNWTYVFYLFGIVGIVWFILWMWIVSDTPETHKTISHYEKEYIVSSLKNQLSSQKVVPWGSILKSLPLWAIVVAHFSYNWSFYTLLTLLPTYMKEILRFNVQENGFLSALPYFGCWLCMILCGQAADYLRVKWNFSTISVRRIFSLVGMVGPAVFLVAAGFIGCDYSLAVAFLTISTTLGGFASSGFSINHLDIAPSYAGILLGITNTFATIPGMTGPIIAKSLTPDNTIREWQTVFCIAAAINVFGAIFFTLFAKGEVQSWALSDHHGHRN
Assay: affinity purification with mass spectrometry; lysate of stable His-Slc17a5 Raw264.7 cells (IP buffer plus 0.3% NP-40), anti-His affinity beads on a column, 4 °C for 3 h, eluted with His-tag peptide, SDS-PAGE, silver staining, LC-MS/MS

Amino acid sequences for entries named in this document (tags omitted).
UniProt P15307: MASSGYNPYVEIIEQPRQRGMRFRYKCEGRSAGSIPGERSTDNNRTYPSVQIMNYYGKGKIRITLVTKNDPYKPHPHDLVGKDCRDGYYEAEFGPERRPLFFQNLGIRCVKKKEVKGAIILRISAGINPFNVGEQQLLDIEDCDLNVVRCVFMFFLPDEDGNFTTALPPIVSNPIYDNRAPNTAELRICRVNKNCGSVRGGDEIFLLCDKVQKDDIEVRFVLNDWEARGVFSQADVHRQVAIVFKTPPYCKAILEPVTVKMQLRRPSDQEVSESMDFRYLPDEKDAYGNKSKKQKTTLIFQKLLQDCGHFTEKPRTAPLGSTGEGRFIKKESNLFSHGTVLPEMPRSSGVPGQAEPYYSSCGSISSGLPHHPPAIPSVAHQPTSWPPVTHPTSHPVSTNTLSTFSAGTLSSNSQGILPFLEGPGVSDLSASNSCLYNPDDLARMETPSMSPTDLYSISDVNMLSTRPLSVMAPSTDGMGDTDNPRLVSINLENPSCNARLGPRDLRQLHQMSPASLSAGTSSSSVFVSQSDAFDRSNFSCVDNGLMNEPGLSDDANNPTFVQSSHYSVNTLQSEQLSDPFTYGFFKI

binding: binds
Substance: Rel (c-Rel, proto-oncogene Rel) (from UniProt P15307 1-587)

From paper PMC12488962
